The target of assay [1] is Biotinylated recombinant human full length HGF (human) (UniProt P14210). The assay can be described thus: flow cytometry on cells; sorting of a random X15 library displayed on E. coli: one cycle of MACS with 42.5 nM biotinylated HGF, then 13 cycles of FACS with biotinylated HGF 20 nM to 5 nM, 4°C 45 minutes, streptavidin-phycoerythrin; 10% human serum in the last cycles; sorted clones sequenced; only the target purified. (A flow cytometer gives signals particle by particle.)

The chains behind the UniProt entries cited, without tags or fusion partners. Residues count along the entry.
UniProt P14210, residues 32-728: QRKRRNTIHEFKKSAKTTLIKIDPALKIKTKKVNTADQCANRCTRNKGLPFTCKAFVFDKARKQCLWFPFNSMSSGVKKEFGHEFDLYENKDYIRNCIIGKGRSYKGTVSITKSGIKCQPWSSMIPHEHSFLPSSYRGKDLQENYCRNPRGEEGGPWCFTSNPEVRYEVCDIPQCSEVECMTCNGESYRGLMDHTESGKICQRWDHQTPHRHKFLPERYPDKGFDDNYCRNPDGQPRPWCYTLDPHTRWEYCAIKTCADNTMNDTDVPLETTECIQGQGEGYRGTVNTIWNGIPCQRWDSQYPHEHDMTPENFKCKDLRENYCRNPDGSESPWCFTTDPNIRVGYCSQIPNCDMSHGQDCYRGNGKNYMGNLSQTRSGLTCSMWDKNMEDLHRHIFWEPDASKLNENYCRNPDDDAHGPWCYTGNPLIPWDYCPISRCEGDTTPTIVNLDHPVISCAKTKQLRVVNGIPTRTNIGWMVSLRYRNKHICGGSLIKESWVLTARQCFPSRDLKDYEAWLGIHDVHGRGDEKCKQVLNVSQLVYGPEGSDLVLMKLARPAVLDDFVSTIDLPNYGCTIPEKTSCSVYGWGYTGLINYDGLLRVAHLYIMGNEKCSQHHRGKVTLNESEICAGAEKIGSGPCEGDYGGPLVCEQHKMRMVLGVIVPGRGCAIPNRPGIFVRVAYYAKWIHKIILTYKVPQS

The target is the same in assay [2]. In words: flow cytometry on cells; 10^7 bacteria of single clones incubated with biotinylated HGF as in sorting; regular washing ('original') or stringent washing ('washed': 3 times 10 minutes in PBS pH 7.4 at 4°C); PE-A fluorescence; only the target purified.
For assay [3] the target is unchanged. In words: flow cytometry on cells; competition: 10^7 bacteria incubated with 7 nM HGF alone or with the same molarity of VEGF-165, EGF, bFGF or BSA; the pair that is blocked; only the target purified.

These are yes or no findings as the source states them, for the method shown. Some results given as binding are weak or reduced against the parent protein; the word gives no strength.

ALQQAWGWWDCYGWR [HGF binding peptide, clone 15, displayed on bacteria]: in assay [1], the binding result is “binds”.

For TYFTWWELSPGCEEH [HGF binding peptide-3 displayed on the surface of bacteria], the binding result in assay [1] and in assay [2] was “binds” throughout. Regarding YRWGMGGYEYWCNRG [HGF binding peptide, clone 10, displayed on bacteria], the binding entry in assay [1] is given as “binds”.

As for MGGGSWLYVGDPDCW [HGF binding peptide, clone 13, displayed on bacteria], the binding entry in assay [1] is recorded as “binds”. On to MEVERRWPWWHANYW [HGF binding peptide, clone 6, displayed on bacteria], for which, in assay [1], the binding entry is recorded as “binds”. HRGLKWEIVPWSGCG [HGF binding peptide-1 displayed on the surface of bacteria]: the binding result in assay [3], in assay [1] and in assay [2] was “binds” throughout. AYMMRDLWEYNWTSG [HGF binding peptide, clone 7, displayed on bacteria]: in assay [1], the binding entry was “binds”. With YWPGCQEWGNKWWGG [HGF binding peptide, clone 9, displayed on bacteria], the binding result in assay [1] is given as “binds”. Turning to TLYEVDLREWCAGIVG [HGF binding peptide-2 displayed on the surface of bacteria], the binding result in assay [1] and in assay [2] was “binds” throughout. For the molecule MYNVRLNDWYWCGWD [HGF binding peptide, clone 16, displayed on bacteria], the binding entry in assay [1] is reported as “binds”. Same read-out and setting: next, RANWFCIEDSVYCGK [HGF binding peptide, clone 4, displayed on bacteria]: “binds”; KGYGRYWWDCGDNFW [HGF binding peptide, clone 8, displayed on bacteria]: “binds”; SARKLGWCPYWSSDC [HGF binding peptide, clone 5, displayed on bacteria]: “binds”.

As to RSSMWDCYYFDCCNW [HGF binding peptide, clone 14, displayed on bacteria], the binding entry in assay [1] was “binds”. Turning to SPWWSVYETQSCAVR [HGF binding peptide, clone 17, displayed on bacteria], in assay [1], the binding result is “binds”. Turning to QRCGMVRFNDWQHPM [HGF binding peptide, clone 11, displayed on bacteria], the binding entry in assay [1] is “binds”. Consider YWYGWGSGWSGCDHA [HGF binding peptide, clone 18, displayed on bacteria], for which the binding result in assay [1] is given as “binds”. In the case of GTARLLWRPVVTYDC [HGF binding peptide, clone 12, displayed on bacteria], in assay [1], the binding result is “binds”.

Source of the values: PMC4745783, “The HGF inhibitory peptide HGP-1 displays promising in vitro and in vivo efficacy for targeted cancer therapy” (Oncotarget, 2015).
